Results are given in words; binding and its absence hold for the method and conditions named. Binding seen in cells or lysates may run through a third protein. Some binding calls cover weakened binding; strength is not graded here.
Target: GFP-CDK5 (cyclin-dependent kinase 5) (UniProt Q00535)
Test: co-IP; cell lysates precipitated with GFP antibody, blotted with TPX2 antibodies; NP-40 lysis buffer

Protein sequences, listed by entry. Tags and fused reporters are not part of them.
UniProt Q9ULW0: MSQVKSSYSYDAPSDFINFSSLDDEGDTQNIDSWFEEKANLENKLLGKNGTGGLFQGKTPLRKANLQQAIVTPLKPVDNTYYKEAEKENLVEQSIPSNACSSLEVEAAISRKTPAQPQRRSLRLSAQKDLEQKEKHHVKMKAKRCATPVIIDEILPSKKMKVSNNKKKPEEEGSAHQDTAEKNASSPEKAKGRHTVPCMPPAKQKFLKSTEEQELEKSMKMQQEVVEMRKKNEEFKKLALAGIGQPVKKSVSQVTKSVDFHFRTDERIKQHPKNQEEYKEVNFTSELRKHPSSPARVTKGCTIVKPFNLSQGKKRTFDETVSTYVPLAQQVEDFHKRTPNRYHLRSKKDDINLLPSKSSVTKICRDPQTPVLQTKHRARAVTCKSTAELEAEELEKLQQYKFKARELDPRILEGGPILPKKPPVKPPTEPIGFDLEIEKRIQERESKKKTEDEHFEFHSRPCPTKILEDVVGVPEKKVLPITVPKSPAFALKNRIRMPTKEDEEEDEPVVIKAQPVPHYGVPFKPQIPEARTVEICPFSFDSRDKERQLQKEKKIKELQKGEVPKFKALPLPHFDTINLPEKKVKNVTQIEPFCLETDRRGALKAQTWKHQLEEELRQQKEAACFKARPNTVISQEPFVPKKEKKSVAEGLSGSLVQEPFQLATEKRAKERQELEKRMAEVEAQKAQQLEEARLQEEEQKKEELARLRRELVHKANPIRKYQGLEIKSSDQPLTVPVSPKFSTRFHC

## TPX2 (target protein for Xklp2) (from UniProt Q9ULW0 1-747)
  binding: binds

— article PMC6610961
